# According to PubChem BioAssay AID504467 (National Center for Advancing Translational Sciences (NCATS), 2011):
# In all, about 330,000 compounds went through this assay and about 7,700 (2.3%) were called active. Inconclusive results, whose numbers are uncertain, are shown with a selection of clear calls. Calls follow the shape of the dose curve; as a rule, active = well fitted inhibition curve with a large enough effect; inconclusive = small, poorly fitted or top-dose-only effect, or effect the other way; inactive = flat fitted curve, though single readings scatter. Where the call is inconclusive, the potency comes from a doubtful curve fit.
# Assay: qHTS screen for small molecules that inhibit ELG1-dependent DNA repair in human embryonic kidney (HEK293T) cells expressing luciferase-tagged ELG1; also: nearly all actives have a fitted effect of over 55% in size
# Conditions: HEK293T ELG1-luciferase reporter, luminescence, 16 h, DNA damage induced by 5-fluorouridine; series mostly up to 46.1 µM
# Summary of the method: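 Luminescence from the luciferase reporter, measured 30 min after ONE-Glo reagent at room temperature, was the read-out. Beforehand, 2,000 cells per well were exposed for 16 hr at 37 °C to 5-fluorouridine together with compound or vehicle.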
# Potency is read from the fitted curve at half-maximal effect.
row,SMILES,Potency
1,CCOc1ccc(N(CC(=O)Nc2cccc(OC)c2)S(=O)(=O)c2c(C)noc2C)cc1,"inconclusive: 13 µM [inhibitor, partial curve]"
2,COCCN(Cc1cc2c(C)cc(C)cc2nc1Cl)C(=O)c1ccccc1F,"inconclusive: 20.6 µM [inhibitor, single point]"
3,CCN(CC)C(=O)[C@H]1C[C@H](CC(=O)NCc2ccco2)C(=O)N2CCc3c([nH]c4ccc(Cl)cc34)[C@]12C,"inconclusive: 29.1 µM [inhibitor, single point]"
4,O=C(Nc1nc(N2C(=O)c3ccccc3C2=O)n(-c2ccccc2)n1)c1ccccc1,"inconclusive: 13 µM [activator, partial curve]"
5,O=C(NCCc1ccccc1)C(=O)NCCC1CCCCN1S(=O)(=O)c1cccs1 (centres undefined),inactive
6,CCn1ncc(CN2CCCC(C(=O)Nc3cccc(-c4cc5ccccc5[nH]4)c3)C2)c1C (centres undefined),inactive
7,COc1ccc(NC(=O)/C=C/c2ccco2)cn1,"inconclusive: 10.3 µM [activator, partial curve]"
8,Cc1ccc(-c2csc(N3CCN(S(=O)(=O)c4ccc5c(c4)NC(=O)CO5)CC3)n2)cc1,inactive
9,CCSc1nc2c(c(=O)n1CC)SC(C)C2 (centres undefined),inactive
10,C/C(=N\NC(=O)c1cc(-c2ccccc2C)nc2ccccc12)c1cccnc1,inactive
11,O=C(Nc1nc(-c2cccs2)c(C(=O)C(F)(F)F)s1)c1ccccc1,inactive
12,COc1cccc2[nH]c3c(N4CCN(Cc5ccc6c(c5)OCO6)CC4)ncnc3c12,active: 23.1 µM
13,CC(=O)Nc1ccc(-c2ccc3nnc(C)n3n2)cc1,"inconclusive: 18.3 µM [activator, partial curve]"
14,O=C(O)c1cccc(NC(=O)c2cn(-c3ccccc3)nc2-c2cc3ccccc3o2)c1,inactive
15,O=C(COc1ncnc2scc(-c3ccccc3)c12)NC1CCCc2ccccc21 (centres undefined),"inconclusive: 29.1 µM [inhibitor, single point]"
16,Nc1ccc(-c2nnn(Cc3ccccc3F)n2)cc1,"inconclusive: 20.6 µM [activator, partial curve]"
17,COC(=O)c1c(C)nn(-c2ccccc2)c1N,"inconclusive: 9.2 µM [activator, partial curve, poor fit]"
18,Cc1cc(C(=O)COC(=O)c2ccc(O)cc2)c(C)n1Cc1ccco1,"inconclusive: 4.61 µM [activator, partial curve]"
19,CN(C)S(=O)(=O)c1ccc(NC(=O)CN2CCC(Cc3ccccc3)CC2)cc1,"inconclusive: 29.1 µM [inhibitor, single point]"
20,Cn1c(CNc2ccc(Cl)cc2)nc2ccccc21,"inconclusive: 2.82 µM [activator, full curve]"
21,CCn1c(=O)n(CC)c2cc(N3CCCC3)c(NC(=O)c3ccccc3Br)cc21,"inconclusive: 16.4 µM [inhibitor, partial curve]"
22,N#Cc1ccccc1COc1cccc2c1CCCC2O (centres undefined),inactive
23,COc1ccc(N(CCCN2C(=O)c3cccc4cccc(c34)C2=O)C(=O)c2cccs2)cc1,"inconclusive: 29.1 µM [inhibitor, single point]"
24,CN(C(=S)NC(=O)c1ccccc1)C1CCCCC1,"inconclusive: 18.3 µM [activator, partial curve]"
25,Nc1sc2c(c1C(=O)NC1CCS(=O)(=O)C1)CCC2 (centres undefined),inactive

# 3 entries from above, ordered by count of non-hydrogen atoms, low to high:
row,SMILES,Potency
20,Cn1c(CNc2ccc(Cl)cc2)nc2ccccc21,"inconclusive: 2.82 µM [activator, full curve]"
13,CC(=O)Nc1ccc(-c2ccc3nnc(C)n3n2)cc1,"inconclusive: 18.3 µM [activator, partial curve]"
22,N#Cc1ccccc1COc1cccc2c1CCCC2O (centres undefined),inactive

# The listing continues:

row,SMILES,Potency
1,CC1(C)CC(=O)c2cnn(-c3nc4ccccc4[nH]3)c2C1,"inconclusive: 18.4 µM [inhibitor, single point]"
2,Cc1ccc(C(=O)Nc2ncc(Cc3ccccc3)s2)o1,"inconclusive: 2.91 µM [activator, partial curve]"
3,Nc1c(O)ccc2c1C(=O)c1ccccc1C2=O,"inconclusive: 20.6 µM [activator, partial curve, poor fit]"
4,O=C(/C=C/c1ccc(S(=O)(=O)NCc2ccco2)cc1)NCc1cccc(Cl)c1,"inconclusive: 32.6 µM [inhibitor, partial curve, poor fit]"
5,COc1ccc2[nH]c(=O)c(CN(C(=O)NC3CCCCC3)C3CCCC3)cc2c1,inactive
6,CCCCC(=O)NC(c1ccc([N+](=O)[O-])cc1)c1c(O)ccc2ccccc12 (centres undefined),active: 25.9 µM
7,CCOc1ccccc1N1CCN(CC(=O)N(C2CCCC2)C2CCS(=O)(=O)C2)CC1 (centres undefined),"inconclusive: 7.08 µM [activator, partial curve]"
8,O=c1c(-c2ccc(O)cc2)coc2cc(O)cc(O)c12,"inconclusive: 16.4 µM [activator, partial curve]"
9,CC(C)CC(=O)Nc1ccc(-c2nc3ccccc3c(=O)[nH]2)cc1,"inconclusive: 1.46 µM [activator, full curve]"
10,COC(=O)c1cc(Br)c(=O)n(CCc2ccccc2)c1,inactive
11,O=C(Cc1c(Cl)cccc1Cl)Nc1ccc(S(=O)(=O)Nc2ncccn2)cc1,inactive
12,Cc1ccc(C(=O)CC(=O)c2ccc(C)cc2O)cc1,"inconclusive: 16.4 µM [activator, single point]"
13,O=C(Nc1ccc(CN2CCOCC2)cc1)c1ccccc1F,"inconclusive: 8.2 µM [activator, partial curve]"
14,COc1cc(N/C=C(\C(C)=O)c2ccccc2)cc(OC)c1,"inconclusive: 29.1 µM [inhibitor, single point]"
15,COc1ccc(Cl)cc1CN1CCN(c2nc(C)cc(C)c2C#N)CC1,inactive
16,CN(C)C(=S)c1ccc2ccccc2n1,inactive
17,N#C/C(=C\c1cccc([N+](=O)[O-])c1)C(=O)Nc1cccnc1,inactive
18,O=C1CCCc2nc(N3CCN(C(=O)c4ccco4)CC3)ncc21,"inconclusive: 18.3 µM [activator, partial curve]"
19,Cc1cc(C(=O)O)n(C(C)(C)C)n1,inactive
20,CCOc1ncnc2c1sc1nc(C)cc(C)c12,"inconclusive: 32.6 µM [inhibitor, single point]"
21,O=C(NCc1cccc(C(F)(F)F)c1)c1cccc2c1C(=O)c1ccc(N3CCC(Cc4ccccc4)CC3)cc1S2(=O)=O,"inconclusive: 10.3 µM [inhibitor, partial curve]"
22,CCOC(=O)C1(CCOc2ccccc2)CCN(Cc2cccn2-c2ncccn2)CC1,inactive
23,COc1ccc(C(=O)Nc2cccnc2)cc1OC,"inconclusive: 16.4 µM [activator, partial curve, poor fit]"
24,Cc1ccc(NC(=O)c2ccc(-c3nn(C)c(=O)c4ccccc34)cc2)c(C)c1,inactive
25,Nc1ncnc2c1ncn2[C@@H]1O[C@H](CNC(=O)[C@H]2CCC(=O)N2)[C@@H](O)[C@H]1O,"inconclusive: 25.9 µM [activator, single point]"

# Copied from the entries so far, two compounds:
row,SMILES,Potency
16,CN(C)C(=S)c1ccc2ccccc2n1,inactive
17,N#C/C(=C\c1cccc([N+](=O)[O-])c1)C(=O)Nc1cccnc1,inactive

# Further results follow:

row,SMILES,Potency
1,Cc1nn(-c2ccccc2)c(C)c1C(=O)OC/C(O)=C(\C#N)c1nc2ccccc2[nH]1,inactive
2,O=C(CCCN1C(=O)/C(=C/c2ccccc2)SC1=S)Nc1ccc(O)cc1,"inconclusive: 16.4 µM [inhibitor, partial curve]"
3,O=C1CSCC(=O)N1c1ncc(C(F)(F)F)cc1Cl,inactive
4,C=C(C)CN(CC)C(=O)CN1C(=O)NC2(CCCc3ccccc32)C1=O (centres undefined),inactive
5,Nc1cc2nsnc2cc1Br,inactive
6,CCN(Cc1ccccc1)C(=O)COC(=O)Cn1cnc2ccccc21,"inconclusive: 3.66 µM [inhibitor, full curve]"
7,CCCOc1ccc(/C(O)=C2/C(=O)C(=O)N(CCOC)C2c2cccnc2)cc1 (centres undefined),inactive
8,CC(C)C[C@@H](CO)N(Cc1ccccc1)S(=O)(=O)N(Cc1ccccc1)[C@@H](CO)CC(C)C,"inconclusive: 29.1 µM [inhibitor, single point]"
9,O=[N+]([O-])c1cccc(Nc2nc(Cl)nc(Cl)n2)c1,inactive
10,CC1=NN(C(=O)c2ccccc2)C(O)(c2ccc(Br)cc2)C1 (centres undefined),"inconclusive: 16.4 µM [inhibitor, partial curve, poor fit]"
11,O=C(C1=C[C@H](C2CCCCC2)C[C@H](OCCCCO)O1)N1CCN(Cc2ccc3c(c2)OCO3)CC1,"inconclusive: 23.1 µM [inhibitor, partial curve]"
12,N/C(=N\OC(=O)c1ccc(Cl)cc1Cl)c1ccncc1,"inconclusive: 7.3 µM [activator, partial curve]"
13,COc1ccc(OC)c(CCNC(=O)Cn2nc(C)c3c(C)n(-c4ccccc4)nc3c2=O)c1,active: 7.3 µM
14,Nc1cccc(C(=O)OCC(=O)c2ccccc2)c1,"inconclusive: 18.4 µM [activator, partial curve]"
15,CC1(C)C(C=C(Cl)Cl)C1C(=O)N/N=C/c1ccccc1F (centres undefined),inactive
16,O=C(COc1ccc(F)cc1Br)NCC1COc2ccccc2O1 (centres undefined),inactive
17,CCOC(=O)c1c(CSc2ccc(C)cc2)n(C)c2cc(Br)c(O)c(CN(C)C)c12,"inconclusive: 23.1 µM [inhibitor, single point]"
18,COC(=O)CNS(=O)(=O)c1ccc(C)cc1,inactive
19,O=C(/C(C=Nc1cc2c(oc1=O)CCCC2=O)=C(\O)c1ccccc1)c1ccccc1,"inconclusive: 16.4 µM [activator, single point]"
20,O=C(O)CCC(=O)NN1C(=O)c2ccccc2NC1c1ccco1 (centres undefined),"inconclusive: 20.6 µM [activator, partial curve, poor fit]"
21,COc1cc(NC(=O)c2ccc(C)cc2)c(OC)cc1NC(=O)CN1CCCCC1,"inconclusive: 18.4 µM [inhibitor, single point]"
22,CC1CN(C(=S)Nc2ccc(Br)cc2)CC(C)O1 (centres undefined),inactive
23,CN(C)/C=C/c1onc(-c2c(F)cccc2Cl)c1C#N,inactive
24,COc1ccc(N=C2NC(=O)/C(=C\c3ccco3)S2)cc1,inactive
